Measurements as given in patent US20050239809A1, “Methods for treating and preventing hypertension and hypertension-related disorders” (priority 2004, published 2005).
For at least one compound, name, drawing or mass did not settle the structure.

What was measured:
[1] = test system: endothelium-denuded mesenteric resistance arteries from DOCA-salt treated rats; experiment: Spontaneous tone of isolated mesenteric resistance arteries (wire myograph, isometric force); parameters: species or system rat; details: 20 μmol/L
[2] = test system: endothelium-denuded aorta from DOCA-salt and sham rats; experiment: Spontaneous tone of endothelium-denuded thoracic aorta in isolated tissue baths (isometric force); parameters: species or system rat; details: 20 μmol/L, 1 hour incubation, compared to vehicle (0.1% DMSO); P<0.05
Protocol: Endothelial cell-denuded thoracic aorta, removed from pentobarbital (60 mg kg^-1, i.p.) anesthetized rats, were pair-mounted (Sham/DOCA) in isolated tissue baths for measurement of isometric force. (Florian and Watts (1999) Am. J. Physiol., 276: […]-[…]) Tissues were challenged with a maximal concentration of a adrenergic agonist, phenylephrine (PE) (10^-5 mol/L). IC87114 (ICOS Corporation, Bothell, Wash.) concentration response curves were generated by adding increasing concentrations of IC87114 (1×10^-9-3×10^-4 mol/L) with measurements of spontaneous tone taken every 30 minutes. Aortic strips from DOCA-salt rats were also exposed to 20 μmol/L IC87114 or vehicle for 1 hour and measurements of spontaneous tone were recorded. […] Tissues were under passive tension for optimal force production. […] The effect of IC87114 was reversible in all experiments, as spontaneous tone was restored upon washing out of IC87114. In further experiments using an IC87114 concentration equivalent to that used in previous experiments with LY294002 (20 μmol/L) (Example 1), IC87114 (20 μmol/L) or vehicle (0.1% DMSO) was incubated with aortic strips from DOCA-salt rats for 1 hour in isolated tissue baths.

[3] = test system: aortic strips from WKY and SHR animals; experiment: Basal/spontaneous tone of endothelium-denuded aortic strips from WKY and SHR rats; parameters: species or system rat; details: 20 μM, 30 minutes; quantified as percentage of initial response to PE; P<0.05
[4] = test system: aortic strips from WKY and SHR animals; experiment: NE-induced contraction of aortic strips from WKY and SHR rats; parameters: species or system rat
[5] = test system: aortic spontaneous tone observed in DOCA-salt rats; details: literature, Northcott et al. (2002) Circ Res. 91: 360-369; cited from earlier work

## O=c1cc(N2CCOCC2)oc2c(-c3ccccc3)cccc12 [LY294002]
[1]; compared to sham or vehicle-incubated arteries, P<0.05
  effect on spontaneous tone in resistance arteries from DOCA-salt rats: significantly inhibited tone
[1]; sham (normotensive) rats
  effect on tone in resistance arteries and aorta from sham rats: had no effect
[2]
  effect on spontaneous tone in aorta from DOCA-salt rats, single concentration: statistically significant decrease in spontaneous tone
[3]
  effect on basal tone of aorta from SHR as compared to WKY: significant decrease in basal tone
[4]; 20 μM preincubated 30 minutes, WKY and SHR aorta, compared to vehicle treated tissues
  shift of NE concentration response curve (NE-induced contraction): rightward shifted
[4]; EC50 values of LY294002-incubated WKY and SHR tissues not significantly different
  effect on hyperresponsiveness to NE in aorta from SHR: normalized the hyperresponsiveness to NE
[5]
  effect on aortic spontaneous tone in DOCA-salt rats: inhibit aortic spontaneous tone observed in DOCA-salt rats in a concentration-dependent manner

## COC[C@H]1OC(=O)c2coc3c2[C@@]1(C)C1=C(C3=O)[C@@H]2CCC(=O)[C@@]2(C)C[C@H]1OC(C)=O [wortmannin]
[5]
  effect on aortic spontaneous tone in DOCA-salt rats: inhibit aortic spontaneous tone observed in DOCA-salt rats in a concentration-dependent manner
